From PubChem BioAssay AID1347423 (Functional Genomics Laboratory (NCATS/FGL), 2020)
The whole screen tested about 52,000 sequences, of which about 210 (0.4%) were called active.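 Rule for the calls: active = gene whose silencing raises cell survival under the drug, median off-target-corrected z-score across its silencing RNAs 2 or more; inactive = the rest.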 Some of the results follow.

experiment: Resistance to Poly (ADP-Ribose) Polymerase inhibitor: Gene Identification via Genome-wide siRNA Screen; details: mouse BRCA2 R2336H ES cells, olaparib, CellTiter-Glo viability; active compounds read high
Summary of the method: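 Mouse BRCA2 R2336H ES cells were reverse-transfected with siRNA (20 nM final), treated at 48 h with 500 nM olaparib, and read by CellTiter-Glo after 72 h. Scores: MAD-based z per siRNA, median per gene, seed off-target correction.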

Row | Sequence | z-score
1 | GGGUCCUGGUUUUACAUUCTT against Itpr1 | inactive: 0.536
2 | GGAAACAUGUCCUCACACATT against Top3b | inactive: 0.337
3 | GGGCAAUGUGUUUAUGUAUTT against D9Wsu20e | inactive: 0.0496
4 | CCCUACUUUGUACAUAGAUTT against Gbx2 | inactive: 1.64
5 | GGAAAACAAUUUCAGGCAATT against Zdhhc3 | inactive: -0.106
6 | GCUCGUUCUUCGACAUCUUTT against Stard3 | inactive: 1.65
7 | GGAGUUUGACCACUACGUATT against P2ry4 | inactive: 2.38
8 | CCUUGUCGCACAAAGAAUATT against Tm9sf1 | inactive: 0.895
9 | GCUGUUGAAACGACACUCGTT against Aarsl | inactive: 0.192
10 | GGAUUAAAGCAGAAUAUGATT against Paics | inactive: -0.246
11 | CCUCCGGAGUAUAAACAAUTT against Nr1i3 | inactive: 0.749
12 | GGUGGAGAGAAAGAGAAAATT against Mcm8 | inactive: -0.888
13 | GGGAGCAUCACCUCUAUCUTT against 4921526K24Rik | inactive: -0.998
14 | GGACUUCUUCACCAUCUGGTT against Lcat | inactive: -0.145
15 | GGUGAAUAAAGACCGAGGUTT against 2210417J20Rik | inactive: -0.992
16 | GUCCAUCAGCAGCUCAAUGTT against Ifna5 | inactive: -0.126
17 | CCAUAGUGGAAUCAAGGCUTT against Olfr1079 | inactive: 0.494
18 | GGAAUGUGAAGAGGGCUUUTT against Olfr1341 | inactive: -0.671
19 | CCAUGAGCGGAUAAGACUCTT against Zfyve1 | inactive: 0.461
20 | GGAGAUUCGGACAAAGUGATT against Rhcg | inactive: 0.442
21 | GGAAUUCAGGAGUCUCUUUTT against Elavl4 | inactive: 0.953
22 | GCCAGGAAUGCUAUUCUCGTT against Lrg1 | inactive: -0.223
23 | CGGAUAGUGAAAUCGCUCUTT against Copz1 | inactive: 0.97
24 | GCCAAACAUUGGUGGACAUTT against H2-D1 | inactive: 1.59
25 | GCCUGGUUAUUAAUUUAUCTT against 2810039F03Rik | inactive: 0.689
26 | GGAGAGUUGAUGUUUGAUGTT against Paxip1 | inactive: -0.886

Row | Sequence | z-score
27 | GGGAAGCCUUUUUUAUCGGTT against V1rb5 | inactive: -1.58
28 | UUCUGUCCAUCGUGAUCAATT against Sctr | inactive: -1.49
29 | GCGACAACGAUUUUGAAAUTT against Rsu1 | inactive: 0.756
30 | CCUCUGUCAGUUGGUUAACTT against 2610528O22Rik | inactive: -0.279
31 | GGAUUUGGAGUAGAUCAAUTT against Tial1 | inactive: -2.61
32 | GCCAGUGCUGGUUUGAAAUTT against 1700024K14Rik | inactive: 0.563
33 | GCUUCAUCCUAGCGGUUUGTT against Dad1 | inactive: -1.3
34 | CCAUUCCCAAUUGGUGUGATT against Olfr435 | inactive: -0.564
35 | GGGUAAUAGACCAUUUCUUTT against Olfr124 | inactive: -0.115
36 | GGAGCUGGAGUACGACUACTT against Tmem30b | inactive: -0.403
37 | GGGCAUUCAGCAGUUACAGTT against 4930558O21Rik | inactive: -0.165
38 | GGAAGGCAUAUGUUUGUGUTT against Asf1a | inactive: 0.293
39 | CUUUUGGUAUUGCAGAAUGTT against Olfr972 | inactive: -0.931
40 | GGAAGAACAAAAAUGCAAGTT against Icsbp1 | inactive: 0.532
41 | GGACUAAUUGGCCUCUGCUTT against 3110001N18Rik | inactive: -0.196
42 | GCCAUUAACUAUGGGACCUTT against Lck | inactive: -0.11
43 | GGAGUAGUGUUGGAUAUAUTT against Mpv17l | inactive: 0.041
44 | CGAUCAACUAUGCCAUUGGTT against 2310051D06Rik | inactive: -0.838
45 | CCGCUCCGAACCAAGAAGATT against Tulp1 | inactive: 0.372
46 | GGAGAGUAUCAGCAAUGAATT against Impg2 | inactive: -2.13
47 | GGCCAACAGGACAGAGAUGTT against D830013H12 | inactive: 0.338
48 | GGAAUCCUUACAUCGCCCATT against Olfr669 | inactive: 0.25
49 | GGCAGACAACUUCUACCAATT against Crim1 | inactive: 0.715
50 | GGCUGACCCUAGAAAGACATT against D430025H09Rik | inactive: -2.44
51 | GGAUGGAGCUACUGAAAUUTT against 2500002K03Rik | inactive: -2.6
52 | GGCUACCAAGGCAGUUUCCTT against Glis1 | inactive: 1.37

Pulled one by one from the list above (3):
Row | Sequence | z-score
49 | GGCAGACAACUUCUACCAATT against Crim1 | inactive: 0.715
43 | GGAGUAGUGUUGGAUAUAUTT against Mpv17l | inactive: 0.041
48 | GGAAUCCUUACAUCGCCCATT against Olfr669 | inactive: 0.25

(cont.)

Row | Sequence | z-score
53 | GGCGAAAGUAAGACAAAGUTT against AI114950 | inactive: -1.59
54 | GCUGGUCAGAGAUUUUGAUTT against Vti1b | inactive: 0.162
55 | GCUGAUUCCGUGUCCCAACTT against Gng2 | inactive: -0.0449
56 | GGCAUCGAUUACAUAAGUUTT against Oxr1 | inactive: -0.618
57 | GGUUGGGCAUUGCACUAACTT against AI849156 | inactive: 1.12
58 | GGAAACCAAUAACUGUUUATT against C130073F10Rik | inactive: 0.392
59 | GGCAAAGAUCGCAUCUUAATT against Eif2c2 | inactive: 0.222
60 | GGAAGAGAAGCUGAACAAGTT against Gja1 | inactive: -2.07
61 | GCUACCUUGAAUUUUCCGATT against Fxr2h | inactive: 0.359
62 | GCAGCAUGGCAAAACCACATT against Bat9 | inactive: -0.176
63 | GGUCUGUAUGAAGACAUUATT against Tprt | inactive: 0.824
64 | GCAACGAGGUACUGUUUUATT against 5430435G22Rik | inactive: 1.3
65 | GGUGAUAGGUGUUAGACUATT against D18Wsu98e | inactive: 0.147
66 | GCAUUGAAUUGCACUAUUGTT against 4933424B01Rik | inactive: -1.68
67 | GGACAAUUGGAAGAUUUGGTT against A430106J12Rik | inactive: 0.132
68 | GGUGUUGUUUUACUUCUGUTT against Timp2 | inactive: 0.315
69 | GGAACUGAGAUCAUUCUGCTT against Olfr140 | inactive: -0.677
70 | GGAAUUCUUAAGAAGUUACTT against Dsg2 | inactive: -0.0763
71 | GGUUAAAUCGAUUUUGCAUTT against Acbd5 | inactive: 0.663
72 | GGUGGUGGCAGAAAUGAAUTT against Dpep2 | inactive: 1.52
73 | GCACCUCCUUAUGUGUCAUTT against Chrm2 | inactive: 0.305
74 | GGUUGUAUUGGAUAUCAAGTT against Ceacam2 | inactive: 0.456
75 | GGCAGAGUAUGAGUUUGACTT against Camk1 | inactive: 1.52
76 | GCUCUUAAAAACUCAGCUUTT against 4933408F15 | inactive: -0.746
77 | GGGAGGAGUAAUAAUCCCGTT against B3gnt1 | inactive: -0.128
78 | GGCAUAACCGCCAUGUCAGTT against 2610034E18Rik | inactive: -0.438

Part of the list above, as labelled records:
GCAGCAUGGCAAAACCACATT against Bat9
  z-score: inactive: -0.176
GGUGUUGUUUUACUUCUGUTT against Timp2
  z-score: inactive: 0.315
GGUUGUAUUGGAUAUCAAGTT against Ceacam2
  z-score: inactive: 0.456
GGGAGGAGUAAUAAUCCCGTT against B3gnt1
  z-score: inactive: -0.128

2 successive records from above, for reference:
Row | Sequence | z-score
20 | GGAGAUUCGGACAAAGUGATT against Rhcg | inactive: 0.442
21 | GGAAUUCAGGAGUCUCUUUTT against Elavl4 | inactive: 0.953

Further entries:

Row | Sequence | z-score
79 | GGCAACAGCAGCUUAUGCCTT against Map3k11 | inactive: -0.988
80 | GGUUAUCACUCCUCAACAATT against Foxp1 | inactive: -0.826
81 | CCGUUUAUAAAGAUCAGCUTT against Sara2 | inactive: 0.721
82 | GCCAGGUGGAUUUGACUAUTT against Ptprv | inactive: 0.968
83 | GCCUUCUGGGUAGAAACUGTT against Lcn12 | inactive: -1.59
84 | GCUUACCACUAAGCAUCUUTT against Ctsc | inactive: -1.19
85 | GGAAAAUUCAUCCUUAGUATT against 2700038L12Rik | inactive: 1.02
86 | GGAAGAUAUUGCUGUUGGATT against Mbd4 | inactive: -1.1
87 | GGACUUUGCACUUCUCACATT against Fut1 | inactive: 0.0519
88 | GCAAUACCUCAGAAAAAGUTT against Tparl | inactive: -0.983
89 | GCCAUCCUUCCAUUUAAGATT against 2410187C16Rik | inactive: -0.594
90 | GGCUUUUCACACGAUAGGGTT against Rab9b | inactive: -0.926
91 | CCGUAGGAGAAGAAAUCCGTT against Grap2 | inactive: 2.63
92 | CCAAAUUUGGCAUUUCUAATT against Slc31a1 | inactive: -1.76
93 | GGCAAGAACAUUUUAUCAATT against Adamts12 | inactive: 2
94 | GCCUGUAUCAAUAAUUCAATT against 2300003P22Rik | inactive: 1.24
95 | GGUUUACUCAGUUAACAGATT against Tgoln1 | inactive: 0.826
96 | GGUGGUGAUUCAUCUGUGCTT against Tas2r135 | inactive: -1.53
97 | GCAAAUCCCAUGAACAGCUTT against Nvl | inactive: 1.27
98 | GCUCAUCUCCUUGAAUUCATT against 9430057O19Rik | inactive: -0.287
99 | GGAGGAAAAGAAAAUUGAGTT against Nef3 | inactive: 0.84
100 | GCGCAGAGGGAUCAUAGAGTT against Heyl | inactive: 0.592
101 | GGAGUCAAAAAUGCAUUCATT against C330023D02Rik | inactive: -0.914
102 | GGGUCAUGUUUUUAAGAAGTT against Sdfr2 | inactive: 0.391
103 | GGAACUGAAACAGUUGGAATT against Tmod2 | inactive: 0.518
104 | GGAUGAAACUAUUCAGCACTT against Chml | inactive: 0.176
